Experimental data as given in article PMC5105134.
Results are given in words; binding and its absence hold for the method and conditions named. Binding seen in cells or lysates may run through a third protein. Some entries that bind do so weakly or less than the wild type.

Protein sequences, listed by entry. Tags and fused reporters are not part of them.
UniProt P68404: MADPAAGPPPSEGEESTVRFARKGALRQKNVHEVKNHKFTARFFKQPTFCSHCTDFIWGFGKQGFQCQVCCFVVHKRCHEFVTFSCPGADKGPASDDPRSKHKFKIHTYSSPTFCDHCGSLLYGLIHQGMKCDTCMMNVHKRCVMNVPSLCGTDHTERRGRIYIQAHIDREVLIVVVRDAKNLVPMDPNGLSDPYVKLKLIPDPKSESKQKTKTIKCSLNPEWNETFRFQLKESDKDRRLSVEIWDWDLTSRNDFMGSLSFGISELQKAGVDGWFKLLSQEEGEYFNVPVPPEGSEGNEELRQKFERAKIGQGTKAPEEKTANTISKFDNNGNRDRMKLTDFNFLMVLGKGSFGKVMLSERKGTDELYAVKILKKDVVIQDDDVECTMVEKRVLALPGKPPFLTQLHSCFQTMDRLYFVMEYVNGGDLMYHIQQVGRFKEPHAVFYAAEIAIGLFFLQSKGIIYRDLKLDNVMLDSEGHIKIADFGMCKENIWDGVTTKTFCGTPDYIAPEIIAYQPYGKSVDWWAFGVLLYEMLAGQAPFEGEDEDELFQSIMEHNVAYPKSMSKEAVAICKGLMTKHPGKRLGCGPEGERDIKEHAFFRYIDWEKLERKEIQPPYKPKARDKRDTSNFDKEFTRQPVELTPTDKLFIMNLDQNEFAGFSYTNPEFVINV

B1: endogenous Nox2 of mouse heart (enzyme, UniProt Q61093 1-570)
chain: MGNWAVNEGLSIFVILVWLGLNVFLFINYYKVYDDGPKYNYTRKLLGSALALARAPAACLNFNCMLILLPVCRNLLSFLRGSSACCSTRIRRQLDRNLTFHKMVAWMIALHTAIHTIAHLFNVEWCVNARVGISDRYSIALSDIGDNENEEYLNFAREKIKNPEGGLYVAVTRLAGITGIVITLCLILIITSSTKTIRRSYFEVFWYTHHLFVIFFIGLAIHGAERIVRGQTAESLEEHNLDICADKIEEWGKIKECPVPKFAGNPPMTWKWIVGPMFLYLCERLVRFWRSQQKVVITKVVTHPFKTIELQMKKKGFKMEVGQYIFVKCPKVSKLEWHPFTLTSAPEEDFFSIHIRIVGDWTEGLFNACGCDKQEFQDAWKLPKIAVDGPFGTASEDVFSYEVVMLVGAGIGVTPFASILKSVWYKYCDNATSLKLKKIYFYWLCRDTHAFEWFADLLQLLETQMQERNNANFLSYNIYLTGWDESQANHFAVHHDEEKDVITGLKQKTLYGRPNWDNEFKTIASEHPNTTIGVFLCGPEALAETLSKQSISNSESGPRGVHFIFNKENF
B2: endogenous p22phox of mouse heart (protein, UniProt Q61462 1-192)
chain: MGQIEWAMWANEQALASGLILITGGIVATAGRFTQWYFGAYSIAAGVLICLLEYPRGKRKKGSTMERCGQKYLTSVVKLFGPLTRNYYVRAALHFLLSVPAGFLLATILGTVCLAIASVIYLLAAIRGEQWTPIEPKPKERPQVGGTIKQPPTNPPPRPPAEVRKKPSEGEEEAASAGGPQVNPMPVTDEVV

Biological target: T1, endogenous TRPC3 of mouse heart (mouse (endogenous in mouse heart)) (UniProt Q9QZC1)
T1 sequence: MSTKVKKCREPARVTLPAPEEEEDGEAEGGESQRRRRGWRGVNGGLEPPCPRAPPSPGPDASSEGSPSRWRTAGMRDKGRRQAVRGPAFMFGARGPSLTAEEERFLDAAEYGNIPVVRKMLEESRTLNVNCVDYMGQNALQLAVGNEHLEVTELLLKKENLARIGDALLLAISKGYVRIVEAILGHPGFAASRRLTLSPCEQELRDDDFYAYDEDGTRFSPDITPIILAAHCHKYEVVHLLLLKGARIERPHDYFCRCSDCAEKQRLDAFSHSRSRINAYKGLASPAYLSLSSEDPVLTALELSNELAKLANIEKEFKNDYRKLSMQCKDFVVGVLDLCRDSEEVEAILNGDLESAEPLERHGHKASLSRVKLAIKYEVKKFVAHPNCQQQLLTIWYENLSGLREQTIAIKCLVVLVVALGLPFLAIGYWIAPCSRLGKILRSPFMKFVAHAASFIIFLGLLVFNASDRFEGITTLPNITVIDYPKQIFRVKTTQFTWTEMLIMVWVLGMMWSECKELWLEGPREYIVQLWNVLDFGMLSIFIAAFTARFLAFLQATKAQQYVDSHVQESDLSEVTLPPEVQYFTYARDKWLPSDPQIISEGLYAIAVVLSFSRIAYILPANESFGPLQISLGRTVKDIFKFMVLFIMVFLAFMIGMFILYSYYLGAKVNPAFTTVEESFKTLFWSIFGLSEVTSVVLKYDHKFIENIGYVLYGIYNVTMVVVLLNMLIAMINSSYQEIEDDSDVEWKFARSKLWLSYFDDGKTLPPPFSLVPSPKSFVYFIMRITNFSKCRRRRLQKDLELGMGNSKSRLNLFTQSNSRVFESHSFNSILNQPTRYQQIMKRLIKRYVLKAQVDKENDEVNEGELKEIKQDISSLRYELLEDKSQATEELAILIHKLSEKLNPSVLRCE
Test: co-IP; endogenous proteins in mouse heart lysates, sham or 1 week after TAC operation; precipitating antibody not stated

| Molecule | binding |
| --- | --- |
| endogenous protein kinase C (PKC) beta of mouse heart (from UniProt P68404 1-671) (enzyme) | binds |
| B1 | binds |
| B2 | binds |
